Paper doi:10.1101/2024.10.20.619318

Tests used:
[1] = biological target: T1, GST-Sec14L6 (human) (UniProt B5MCN3); assay: pull-down
T1 sequence: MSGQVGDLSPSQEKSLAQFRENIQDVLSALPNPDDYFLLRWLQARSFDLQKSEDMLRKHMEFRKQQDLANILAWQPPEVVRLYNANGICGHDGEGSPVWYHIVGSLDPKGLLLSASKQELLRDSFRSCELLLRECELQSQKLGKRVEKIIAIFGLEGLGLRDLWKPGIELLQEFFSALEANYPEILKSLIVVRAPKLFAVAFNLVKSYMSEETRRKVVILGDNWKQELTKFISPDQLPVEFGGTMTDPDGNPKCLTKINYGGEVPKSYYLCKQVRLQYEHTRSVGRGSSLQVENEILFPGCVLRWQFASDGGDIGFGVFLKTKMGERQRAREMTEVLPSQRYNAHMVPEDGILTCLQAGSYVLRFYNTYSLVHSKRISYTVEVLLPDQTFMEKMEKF

[2] = biological target: T2, GFP-Sec14L6 (human) (UniProt B5MCN3); assay: co-IP
T2 sequence: T1 sequence

## His-ACSL3-NT-ΔTM (human) (domain or fragment)
[1]
  binding: binds

## His-ACSL3-ΔTM (human) (domain or fragment)
[1]
  binding: binds

## the CT region of Sec14L6 (prey of GFP-Sec14L6 in Fig. S4B) (human) (domain or fragment)
[2]
  binding: binds

## His-PGRMC1-ΔTM (human) (domain or fragment)
[1]
  binding: binds

## the Carl-Trio domain of Sec14L6 (prey of GFP-Sec14L6 in Fig. S4B) (human) (domain or fragment)
[2]
  binding: binds

No constants are given. Whether binding was seen depends on the method and setting. Binding can be weak; no strength is given. Sequences can lack the tags named with a protein. For some assays here: Binding seen in cells or lysates may run through a third protein.
